Results deposited as PubChem BioAssay AID602196 (INSERM, 2012).

Aim: 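Modifiers of cisplatin sensitivity in A549 cells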
Cells: human A549 lung cancer cells
Reagent: siRNA pair against human genes
Time to read-out: 48 h transfection before cisplatin; time from cisplatin to read-out not stated
Treatment: cisplatin at a dose killing half of control-siRNA cells; exact dose and duration not given
Measured: 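Shift in cisplatin death relative to control siRNA, from -50 (all cells die) to +50 (no cells die); siRNAs harmful on their own scored 0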
Scale: two-siRNA summed score (-2 to +2): higher = both siRNAs protect from cisplatin killing; -2 means both sensitise; mean protection from cisplatin (shift in death): higher = protection from cisplatin killing
Rule for the call: 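Each siRNA scores 0 if harmful alone by LDH or WST-1, otherwise +1 if it reduces and -1 if it increases cisplatin killing; a gene is active when both siRNAs agree (sum +2 or -2)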
Calls: active = both siRNAs shift cisplatin killing the same way; inactive = no consistent shift, or siRNA harmful alone
The deposit covers about 23,000 reagents; below is a random part of them. Over the whole deposit, 455 (2%) are marked active. 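Active includes both protection and sensitisation; some change values fall well beyond the stated -50 to +50 range.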 Further read-outs or replicates are left out here. No sequences are given here. Not stated in the record: the amount of reagent.

With knock-down of LOC440355 [SID131515197] the results were two-siRNA summed score (-2 to +2) = 0; mean protection from cisplatin (shift in death) (%) = 8.8; inactive.
After knock-down of REEP3 [SID131502293], the record shows two-siRNA summed score (-2 to +2) = -1; mean protection from cisplatin (shift in death) (%) = -3.6; inactive.
Silencing of MDFI [SID131501207] gave: two-siRNA summed score (-2 to +2) = -1; mean protection from cisplatin (shift in death) (%) = -11.4; inactive.
Knock-down of MZB1 [SID131507512] gave: two-siRNA summed score (-2 to +2) = 0; mean protection from cisplatin (shift in death) (%) = 0; inactive.
Against FLJ16686 [SID131509915], the values are two-siRNA summed score (-2 to +2) = 0; mean protection from cisplatin (shift in death) (%) = 2.7; inactive.
With knock-down of ZC3HC1 [SID131519399], the screen gave two-siRNA summed score (-2 to +2) = 1; mean protection from cisplatin (shift in death) (%) = 5.3; inactive.
Depletion of LOC441340 [SID131501892] came out at: two-siRNA summed score (-2 to +2) = -1; mean protection from cisplatin (shift in death) (%) = -6.7; inactive.
For HEATR4 [SID131508834], the entry reads two-siRNA summed score (-2 to +2) = 0; mean protection from cisplatin (shift in death) (%) = 1.5; inactive.
For HTR1B [SID131501178] the deposit lists two-siRNA summed score (-2 to +2) = -1; mean protection from cisplatin (shift in death) (%) = -11.7; inactive.
For CEP97 [SID131518945], the entry reads two-siRNA summed score (-2 to +2) = 1; mean protection from cisplatin (shift in death) (%) = -2.1; inactive.
Silencing of CALML6 [SID131518452] came out at: two-siRNA summed score (-2 to +2) = 0; mean protection from cisplatin (shift in death) (%) = 19.9; inactive.
Against SARNP [SID131508258] the deposit lists two-siRNA summed score (-2 to +2) = 0; mean protection from cisplatin (shift in death) (%) = 0.8; inactive.
Against FLJ40343 [SID131504768], the values are two-siRNA summed score (-2 to +2) = 0; mean protection from cisplatin (shift in death) (%) = -4.5; inactive.
ACP6 [SID131509939] showed two-siRNA summed score (-2 to +2) = 0; mean protection from cisplatin (shift in death) (%) = 2.7; inactive.
Against MED31 [SID131508131] the deposit lists two-siRNA summed score (-2 to +2) = 0; mean protection from cisplatin (shift in death) (%) = 0.7; inactive.
HEXB [SID131517796] gave two-siRNA summed score (-2 to +2) = 0; mean protection from cisplatin (shift in death) (%) = 14.8; inactive.
Silencing of ZNF706 [SID131517289] came out at: two-siRNA summed score (-2 to +2) = 0; mean protection from cisplatin (shift in death) (%) = 12.9; inactive.
Depletion of CSPP1 [SID131509191] resulted in: two-siRNA summed score (-2 to +2) = 0; mean protection from cisplatin (shift in death) (%) = 1.9; inactive.
Knock-down of ANKH [SID131517823] resulted in: two-siRNA summed score (-2 to +2) = 0; mean protection from cisplatin (shift in death) (%) = 15; inactive.
OR5M11 [SID131504173] showed two-siRNA summed score (-2 to +2) = 0; mean protection from cisplatin (shift in death) (%) = -6.3; inactive.
After knock-down of DKFZP434B172 [SID131518253] the results were two-siRNA summed score (-2 to +2) = 0; mean protection from cisplatin (shift in death) (%) = 17.6; inactive.
